Experimental data published in publication PMC7480864.
No constants are given. Whether binding was seen depends on the method and setting. In cells and extracts the contact can be indirect. Here binding means that the protein was enriched with, or labelled near, the bait; the list need not be complete. Sequences can lack the tags named with a protein.

B1: Acyl-CoA dehydrogenase family member 9, mitochondrial (protein, UniProt Q9H845 38-621)
chain: AFAKELFLGKIKKKEVFPFPEVSQDELNEINQFLGPVEKFFTEEVDSRKIDQEGKIPDETLEKLKSLGLFGLQVPEEYGGLGFSNTMYSRLGEIISMDGSITVTLAAHQAIGLKGIILAGTEEQKAKYLPKLASGEHIAAFCLTEPASGSDAASIRSRATLSEDKKHYILNGSKVWITNGGLANIFTVFAKTEVVDSDGSVKDKITAFIVERDFGGVTNGKPEDKLGIRGSNTCEVHFENTKIPVENILGEVGDGFKVAMNILNSGRFSMGSVVAGLLKRLIEMTAEYACTRKQFNKRLSEFGLIQEKFALMAQKAYVMESMTYLTAGMLDQPGFPDCSIEAAMVKVFSSEAAWQCVSEALQILGGLGYTRDYPYERILRDTRILLIFEGTNEILRMYIALTGLQHAGRILTTRIHELKQAKVSTVMDTVGRRLRDSLGRTVDLGLTGNHGVVHPSLADSANKFEENTYCFGRTVETLLLRFGKTIMEEQLVLKRVANILINLYGMTAVLSRASRSIRIGLRNHDHEVLLANTFCVEAYLQNLFSLSQLDKYAPENLDEQIKKVSQQILEKRAYICAHPLDRTC
B2: Electron transfer flavoprotein subunit beta (protein, UniProt P38117 1-255)
chain: MAELRVLVAVKRVIDYAVKIRVKPDRTGVVTDGVKHSMNPFCEIAVEEAVRLKEKKLVKEVIAVSCGPAQCQETIRTALAMGADRGIHVEVPPAEAERLGPLQVARVLAKLAEKEKVDLVLLGKQAIDDDCNQTGQMTAGFLDWPQGTFASQVTLEGDKLKVEREIDGGLETLRLKLPAVVTADLRLNEPRYATLPNIMKAKKKKIEVIKPGDLGVDLTSKLSVISVEDPPQRTAGVKVETTEDLVAKLKEIGRI
B3: Inorganic pyrophosphatase 2, mitochondrial (protein, UniProt Q9H2U2 33-334)
chain: ALYHTEERGQPCSQNYRLFFKNVTGHYISPFHDIPLKVNSKEENGIPMKKARNDEYENLFNMIVEIPRWTNAKMEIATKEPMNPIKQYVKDGKLRYVANIFPYKGYIWNYGTLPQTWEDPHEKDKSTNCFGDNDPIDVCEIGSKILSCGEVIHVKILGILALIDEGETDWKLIAINANDPEASKFHDIDDVKKFKPGYLEATLNWFRLYKVPDGKPENQFAFNGEFKNKAFALEVIKSTHQCWKALLMKKCNGGAINCTNVQISDSPFRCTQEEARSLVESVSSSPNKESNEEEQVWHFLGK
B4: 3-hydroxyisobutyryl-CoA hydrolase, mitochondrial (protein, UniProt Q6NVY1 33-386)
chain: DAAEEVLLEKKGCTGVITLNRPKFLNALTLNMIRQIYPQLKKWEQDPETFLIIIKGAGGKAFCAGGDIRVISEAEKAKQKIAPVFFREEYMLNNAVGSCQKPYVALIHGITMGGGVGLSVHGQFRVATEKCLFAMPETAIGLFPDVGGGYFLPRLQGKLGYFLALTGFRLKGRDVYRAGIATHFVDSEKLAMLEEDLLALKSPSKENIASVLENYHTESKIDRDKSFILEEHMDKINSCFSANTVEEIIENLQQDGSSFALEQLKVINKMSPTSLKITLRQLMEGSSKTLQEVLTMEYRLSQACMRGHDFHEGVRAVLIDKDQSPKWKPADLKEVTEEDLNNHFKSLGSSDLKF
B5: Reticulon-4-interacting protein 1, mitochondrial (protein, UniProt Q8WWV3 41-396)
chain: TVMPAWVIDKYGKNEVLRFTQNMMMPIIHYPNEVIVKVHAASVNPIDVNMRSGYGATALNMKRDPLHVKIKGEEFPLTLGRDVSGVVMECGLDVKYFKPGDEVWAAVPPWKQGTLSEFVVVSGNEVSHKPKSLTHTQAASLPYVALTAWSAINKVGGLNDKNCTGKRVLILGASGGVGTFAIQVMKAWDAHVTAVCSQDASELVRKLGADDVIDYKSGSVEEQLKSLKPFDFILDNVGGSTETWAPDFLKKWSGATYVTLVTPFLLNMDRLGIADGMLQTGVTVGSKALKHFWKGVHYRWAFFMASGPCLDDIAELVDAGKIRPVIEQTFPFSKVPEAFLKVERGHARGKTVINVV
B6: Cob(I)yrinic acid a,c-diamide adenosyltransferase, mitochondrial (protein, UniProt Q96EY8 33-250)
chain: QSRGPQGVEDGDRPQPSSKTPRIPKIYTKTGDKGFSSTFTGERRPKDDQVFEAVGTTDELSSAIGFALELVTEKGHTFAEELQKIQCTLQDVGSALATPCSSAREAHLKYTTFKAGPILELEQWIDKYTSQLPPLTAFILPSGGKISSALHFCRAVCRRAERRVVPLVQMGETDANVAKFLNRLSDYLFTLARYAAMKEGNQEKIYMKNDPSAESEGL
B7: Complex III assembly factor LYRM7 (protein, UniProt Q5U5X0 1-104)
chain: MGRAVKVLQLFKTLHRTRQQVFKNDARALEAARIKINEEFKNNKSETSSKKIEELMKIGSDVELLLRTSVIQGIHTDHNTLKLVPRKDLLVENVPYCDAPTQKQ
B8: Mitochondrial genome maintenance exonuclease 1 (protein, UniProt Q9BQP7 1-344)
chain: MKMKLFQTICRQLRSSKFSVESAALVAFSTSSYSCGRKKKVNPYEEVDQEKYSNLVQSVLSSRGVAQTPGSVEEDALLCGPVSKHKLPNQGEDRRVPQNWFPIFNPERSDKPNASDPSVPLKIPLQRNVIPSVTRVLQQTMTKQQVFLLERWKQRMILELGEDGFKEYTSNVFLQGKRFHEALESILSPQETLKERDENLLKSGYIESVQHILKDVSGVRALESAVQHETLNYIGLLDCVAEYQGKLCVIDWKTSEKPKPFIQSTFDNPLQVVAYMGAMNHDTNYSFQVQCGLIVVAYKDGSPAHPHFMDAELCSQYWTKWLLRLEEYTEKKKNQNIQKPEYSE
B9: NAD(P) transhydrogenase, mitochondrial (protein, UniProt Q13423 44-1086)
chain: CKAPVKPGIPYKQLTVGVPKEIFQNEKRVALSPAGVQNLVKQGFNVVVESGAGEASKFSDDHYRVAGAQIQGAKEVLASDLVVKVRAPMVNPTLGVHEADLLKTSGTLISFIYPAQNPELLNKLSQRKTTVLAMDQVPRVTIAQGYDALSSMANIAGYKAVVLAANHFGRFFTGQITAAGKVPPAKILIVGGGVAGLASAGAAKSMGAIVRGFDTRAAALEQFKSLGAEPLEVDLKESGEGQGGYAKEMSKEFIEAEMKLFAQQCKEVDILISTALIPGKKAPVLFNKEMIESMKEGSVVVDLAAEAGGNFETTKPGELYIHKGITHIGYTDLPSRMATQASTLYSNNITKLLKAISPDKDNFYFDVKDDFDFGTMGHVIRGTVVMKDGKVIFPAPTPKNIPQGAPVKQKTVAELEAEKAATITPFRKTMSTASAYTAGLTGILGLGIAAPNLAFSQMVTTFGLAGIVGYHTVWGVTPALHSPLMSVTNAISGLTAVGGLALMGGHLYPSTTSQGLAALAAFISSVNIAGGFLVTQRMLDMFKRPTDPPEYNYLYLLPAGTFVGGYLAALYSGYNIEQIMYLGSGLCCVGALAGLSTQGTARLGNALGMIGVAGGLAATLGVLKPGPELLAQMSGAMALGGTIGLTIAKRIQISDLPQLVAAFHSLVGLAAVLTCIAEYIIEYPHFATDAAANLTKIVAYLGTYIGGVTFSGSLIAYGKLQGLLKSAPLLLPGRHLLNAGLLAASVGGIIPFMVDPSFTTGITCLGSVSALSAVMGVTLTAAIGGADMPVVITVLNSYSGWALCAEGFLLNNNLLTIVGALIGSSGAILSYIMCVAMNRSLANVILGGYGTTSTAGGKPMEISGTHTEINLDNAIDMIREANSIIITPGYGLCAAKAQYPIADLVKMLTEQGKKVRFGIHPVAGRMPGQLNVLLAEAGVPYDIVLEMDEINHDFPDTDLVLVIGANDTVNSAAQEDPNSIIAGMPVLEVWKSKQVIVMKRSLGVGYAAVDNPIFYKPNTAMLLGDAKKTCDALQAKVRESYQK
B10: Malate dehydrogenase, mitochondrial (protein, UniProt P40926 25-338)
chain: AKVAVLGASGGIGQPLSLLLKNSPLVSRLTLYDIAHTPGVAADLSHIETKAAVKGYLGPEQLPDCLKGCDVVVIPAGVPRKPGMTRDDLFNTNATIVATLTAACAQHCPEAMICVIANPVNSTIPITAEVFKKHGVYNPNKIFGVTTLDIVRANTFVAELKGLDPARVNVPVIGGHAGKTIIPLISQCTPKVDFPQDQLTALTGRIQEAGTEVVKAKAGAGSATLSMAYAGARFVFSLVDAMNGKEGVVECSFVKSQETECTYFSTPLLLGKKGIEKNLGIGKVSSFEEKMISDAIPELKASIKKGEDFVKTLK

Biological target: T1, SHMT2-BirA*-Flag (mouse) (UniProt Q9CZN7)
T1 sequence: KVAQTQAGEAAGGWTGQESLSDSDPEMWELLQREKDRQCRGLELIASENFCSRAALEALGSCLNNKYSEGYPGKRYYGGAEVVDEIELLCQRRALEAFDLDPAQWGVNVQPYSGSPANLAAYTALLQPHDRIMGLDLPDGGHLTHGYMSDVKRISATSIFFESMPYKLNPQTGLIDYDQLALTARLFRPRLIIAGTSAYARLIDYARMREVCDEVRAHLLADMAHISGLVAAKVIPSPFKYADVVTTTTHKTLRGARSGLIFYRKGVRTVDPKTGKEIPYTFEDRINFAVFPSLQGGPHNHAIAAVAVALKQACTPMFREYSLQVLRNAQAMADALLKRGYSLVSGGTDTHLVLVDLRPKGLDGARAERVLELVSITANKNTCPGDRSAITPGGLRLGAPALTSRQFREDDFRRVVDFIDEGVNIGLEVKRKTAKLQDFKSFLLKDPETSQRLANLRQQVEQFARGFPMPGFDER
Assay: proximity labelling; BioID in HeLa cells with Tet-induced SHMT2-BirA*-Flag; biotinylated proteins purified on immobilized streptavidin, trypsin digestion, MS; compared with BirA*-Flag alone and CHCHD2-BirA*-Flag (n = 3; >32-fold, p <0.05)

Binder | binding
B1 | binds
B2 | binds
B3 | binds
B4 | binds
B5 | binds
B6 | binds
B7 | binds
B8 | binds
B9 | binds
B10 | binds
